Data: PMC4758748
Results are given in words; binding and its absence hold for the method and conditions named. Binding calls can cover weak binding; strength is not graded here. Sequences can lack the tags named with a protein.

Columns and labels:
[1] = target: T1, Chs2-1-629 (two-hybrid fusion) (S. cerevisiae) (UniProt P14180); assay: two-hybrid; vectors pGADT7 and pGBKT7 (Clontech); growth for two or three days at 30°C on Synthetic Complete medium lacking leucine, tryptophan and histidine (selective)
T1 sequence: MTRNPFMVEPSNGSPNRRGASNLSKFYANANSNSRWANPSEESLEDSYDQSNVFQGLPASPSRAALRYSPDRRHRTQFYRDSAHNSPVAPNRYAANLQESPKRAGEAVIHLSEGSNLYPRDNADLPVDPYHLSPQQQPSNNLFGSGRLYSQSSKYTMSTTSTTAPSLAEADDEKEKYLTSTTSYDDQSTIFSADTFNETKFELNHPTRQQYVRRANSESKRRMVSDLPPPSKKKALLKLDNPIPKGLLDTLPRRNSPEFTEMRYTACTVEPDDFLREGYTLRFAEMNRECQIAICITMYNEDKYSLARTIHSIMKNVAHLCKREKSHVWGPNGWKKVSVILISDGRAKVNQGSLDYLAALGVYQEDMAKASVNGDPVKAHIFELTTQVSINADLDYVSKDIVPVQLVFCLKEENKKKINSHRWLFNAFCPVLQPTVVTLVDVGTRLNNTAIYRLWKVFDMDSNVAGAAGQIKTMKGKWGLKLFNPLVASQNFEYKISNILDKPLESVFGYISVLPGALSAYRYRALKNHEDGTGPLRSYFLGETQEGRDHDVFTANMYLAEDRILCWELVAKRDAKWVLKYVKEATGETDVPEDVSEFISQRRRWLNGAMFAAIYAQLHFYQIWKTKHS

[2] = target: T2, Chs2-215-629 (two-hybrid fusion) (S. cerevisiae) (UniProt P14180); assay: as above
T2 sequence: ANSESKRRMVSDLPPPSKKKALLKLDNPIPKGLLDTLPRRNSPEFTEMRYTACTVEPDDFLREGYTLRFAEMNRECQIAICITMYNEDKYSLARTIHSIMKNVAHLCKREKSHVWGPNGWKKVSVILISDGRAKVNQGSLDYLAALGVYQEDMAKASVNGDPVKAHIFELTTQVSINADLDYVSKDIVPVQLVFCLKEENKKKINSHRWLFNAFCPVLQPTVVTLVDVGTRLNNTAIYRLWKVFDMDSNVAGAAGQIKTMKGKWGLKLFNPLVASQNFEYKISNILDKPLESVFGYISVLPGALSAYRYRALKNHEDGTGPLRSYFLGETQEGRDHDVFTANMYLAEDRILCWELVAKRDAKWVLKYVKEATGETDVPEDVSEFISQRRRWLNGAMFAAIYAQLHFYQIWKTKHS

Cyk3-2A (transglutaminase-like domain mutant, two-hybrid fusion) (S. cerevisiae) (domain or fragment)
binding [1]: binds | binding [2]: binds
